This is an account of results in article PMC10544015 (Journal of Medicinal Chemistry, 2023).

One data set in a line: peptide synthesis. The settings on record: TFA salts; for final HPLC purity / isolated yield: whole synthesis.
A short description of data set [1]: general procedure: Fmoc solid-phase peptide synthesis; Rink amide AM resin (loading 0.13–0.6 mmol/g); preloaded Tyr(tBu)-Wang (0.45 mmol/g) and Ala-Wang (0.68 mmol/g); HBTU/DIPEA (manual); DIC/Oxyma (automated). Particulars: whole synthesis, scale of the general procedure 0.1 mmol, TFA salts; for final HPLC purity: reversed-phase HPLC.

Square brackets hold non-standard residues; d marks the D form. Ahx = NCCCCCC(=O)O

Take “Ac-Ser-Trp-Arg-Gln-Ala-Ala-Phe-c[Pra-Asp-Ser-Tyr-Azk]-NH2”: in “peptide synthesis”, the “final HPLC purity” value is reported as >99% and the isolated yield turned out to be 7%.
The matching figures for “Ac-Ser-Trp-Arg-Gln-Ala-Ala-Phe-c[Pra-Asp-Ser-Tyr-Azo]-NH2”: 98% and 7%.
In the case of “Ac-Ser-Trp-Arg-Gln-Ala-Ala-c[Pra-Val-Asp-Ser-Azk]-NH2”, in “peptide synthesis”, the “final HPLC purity” value was >99% and the isolated yield is 6%.
Regarding “Ac-Ser-Trp-Arg-Gln-Ala-Ala-c[Pra-Val-Asp-Ser-Azo]-NH2”, the difficulty met entry in “peptide synthesis” (cyclisation step) was “a dimeric side product was generated alongside the desired product”. For the same substance, in the data set “peptide synthesis”, the “final HPLC purity” value is 98% and the isolated yield is listed as 9%.
Consider “Ac-Ser-Trp-Arg-Gln-Ala-c[Azk-Phe-Val-Asp-Pra]-Tyr-NH2”, for which, in the data set “peptide synthesis”, the “final HPLC purity” value stood at 99% and the isolated yield is given as 4%.
The matching figures for “Ac-Ser-Trp-Arg-Gln-Ala-c[D-Pra-Phe-Val-Asp-Azk]-Tyr-NH2”: 99% and 15%.
For “Ac-Ser-Trp-Arg-Gln-Ala-c[Pra-Phe-Val-Asp-Azk]-Tyr-NH2”, in data set [1], the “final HPLC purity” value is recorded as >99% and the isolated yield was found to be 19%.
“Ac-Ser-Trp-Arg-Gln-Ala-c[Pra-Phe-Val-Asp-Azo]-Tyr-NH2”: in the data set “peptide synthesis”, the “final HPLC purity” value was >99% and the isolated yield is 11%.
The matching figures for “Ac-Ser-Trp-Arg-Gln-Ala-c[hPra-Phe-Val-Asp-Azk]-Tyr-NH2”: 99% and 26%.
The matching figures for “Ac-c[Azk-Trp-Arg-Gln-Pra]-Ala-Phe-Val-Asp-Ser-Tyr-NH2”: 97% and 3%.
The corresponding values for “Ac-c[D-Pra-Trp-Arg-Gln-Azk]-Ala-Phe-Val-Asp-Ser-Tyr-NH2” are 96% and 8%.
On to “Ac-c[Pra-Trp-Arg-Gln-Azk]-Ala-Phe-Val-Asp-Ser-Tyr-NH2”, for which, in data set [1], the “final HPLC purity” value was >99% and the isolated yield is recorded as 11%.
With “Ac-c[Pra-Trp-Arg-Gln-Azk]-c[Pra-Phe-Val-Asp-Azk]-Tyr-NH2”, in “peptide synthesis”, the “final HPLC purity” value is given as 99% and the isolated yield is reported as 23%.
The corresponding values for “Ac-c[Pra-Trp-Arg-Gln-Azo]-Ala-Phe-Val-Asp-Ser-Tyr-NH2” are 98% and 8%.
Regarding “Ac-c[hPra-Trp-Arg-Gln-Azk]-Ala-Phe-Val-Asp-Ser-Tyr-NH2”, in the data set “peptide synthesis”, the “final HPLC purity” value is given as 99% and the isolated yield stood at 18%.
For the substance H-K[Ahx]WRQAAFVDSY-OH, in data set [1], the “final HPLC purity” value came to 98% and the isolated yield is reported as 7%.
The matching figures for “H-Lys-Ahx-c[Pra-Trp-Arg-Gln-Azk]-c[Pra-Phe-Val-Asp-Azk]-Tyr-NH2”: 99% and 12%.
Regarding H-SWRQAAFVDSYCWA-OH, in the data set “peptide synthesis”, the “final HPLC purity” value is listed as 96% and the isolated yield is 6%.
As to H-WRQAAFVDSY-OH, in data set [1], the “final HPLC purity” value was >99% and the isolated yield turned out to be 43%.
